Experimental data taken from the supplement of paper PMC10689618.
Some of the results follow. Many values rest on one well or one pass, so single values are uncertain.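 Primary human fetal astrocytes engulfed labelled rat cortical synaptosomes, measured as a red/green ratio corrected for calcein live-cell signal and scaled to the plate median. Toxicity meant calcein falling over 30%; decreased phagocytosis meant below 70% of median above 5 µM.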

What was measured:
Human fetal astrocytes [1] = assay: loss of total cells relative to no-compound high-control median (toxicity); higher = more toxic (fewer cells); details: 24 h
Human fetal astrocytes [2] = assay: synaptosome phagocytosis (pHrodo/calcein intensity ratio) relative to plate median of data wells; higher = more phagocytosis; details: 24 h

Row | Compound | loss of total cells (Human fetal astrocytes [1]; 1.39 µM) | loss of total cells (Human fetal astrocytes [1]; 2.78 µM) | loss of total cells (Human fetal astrocytes [1]; 5.56 µM) | loss of total cells (Human fetal astrocytes [1]; 11.11 µM) | loss of total cells (Human fetal astrocytes [1]; 22.22 µM) | synaptosome phagocytosis (Human fetal astrocytes [2]; 1.39 µM) | synaptosome phagocytosis (Human fetal astrocytes [2]; 2.78 µM) | synaptosome phagocytosis (Human fetal astrocytes [2]; 5.56 µM) | synaptosome phagocytosis (Human fetal astrocytes [2]; 11.11 µM) | synaptosome phagocytosis (Human fetal astrocytes [2]; 22.22 µM)
1 | CC(C)(CO)[C@@H](O)C(=O)NCCCO | 38% | 35.9% | -6.1% | 22.6% | 25.6% | 148% | 128% | 47.1% | 57.7% | 130%
2 | NCCOB(c1ccccc1)c1ccccc1 | -27.9% | -16.2% | -15.4% | -10.1% | -11.1% | 125% | 98.5% | 122% | 110% | 118%
3 | CCCCCCCCCCCCCCCC(=O)OCC(O)CO (stereo not given) | 1.1% | 13.3% | -1.5% | 51% | 8.5% | 93.4% | 93.3% | 86.1% | 109% | 97.3%
4 | CCCc1nc(C(C)(C)O)c(C(=O)OCc2oc(=O)oc2C)n1Cc1ccc(-c2ccccc2-c2nnn[nH]2)cc1 | -10.5% | -19.8% | 1.2% | 23.9% | -5.9% | 98% | 93.5% | 112% | 134% | 122%
5 | CCCCC[C@H](CC(=O)NO)C(=O)N[C@H](C(=O)N1CCC[C@H]1CO)C(C)C [Actinonin] | -19.9% | 13.3% | -19.1% | 26.5% | -10% | 91.9% | 155% | 75.8% | 89.7% | 105%
6 | O=c1cc(-c2ccccc2)oc2cc(O)c(O)cc12 | -5.7% | -3.2% | 11% | 8.8% | 27.4% | 76.7% | 114% | 103% | 121% | 133%
7 | O=C(O)Cc1cc(I)c(Oc2cc(I)c(O)c(I)c2)c(I)c1 | 13.4% | 2.5% | 15.9% | 25.5% | 6.8% | 114% | 123% | 102% | 150% | 120%
8 | CCOc1ccc2c(c1)C(C)=CC(C)(C)N2 | 2.5% | -1.1% | 16.7% | 29.7% | 50.8% | 97.9% | 127% | 108% | 110% | 87.2%
9 | C=C1CCC2C(CC2(C)C)C(=C)CC/C1=N/O (stereo not given) | 9.1% | 9.3% | -35.1% | 46.5% | 3.3% | 124% | 121% | 92.1% | 152% | 94.9%
10 | COc1cccc(-c2cc(=O)c3cc(OC)ccc3o2)c1 | -12.3% | 4% | 8.8% | 14.2% | 4.4% | 95.5% | 113% | 123% | 103% | 109%
11 | S=P(N1CC1)(N1CC1)N1CC1 | 0% | -30.2% | 0% | -13.4% | -8.4% | 121% | 102% | 103% | 64% | 94.2%
12 | CCCCCCCCCCCCCCCCC(C(=O)O)C(O)(CC(=O)O)C(=O)O (stereo not given) | -11.5% | 7.6% | 1.5% | 10.8% | 21.5% | 83.3% | 94.4% | 75.7% | 84.9% | 113%
13 | COc1ccc2c(=O)c(-c3ccc(O)cc3)coc2c1 | -41% | 16.2% | 15.4% | -3.4% | 8.9% | 48.6% | 128% | 91.7% | 82.5% | 142%
14 | CCCCCCc1ccc(O)cc1O | 14.5% | 10.5% | -4.2% | 13.5% | 35.6% | 90.7% | 119% | 71.8% | 97.2% | 59.1%
15 | CC[C@]12CCCN3CCc4c(n(c5ccccc45)[C@@](O)(C(=O)OC)C1)[C@@H]32 | 9% | 16.2% | 16.7% | 2.9% | 18.9% | 112% | 103% | 114% | 127% | 96.8%
16 | CC[C@@]1(O)C(=O)OCc2c1cc1n(c2=O)Cc2cc3c(CN(C)C)c(O)ccc3nc2-1 | -26.6% | -2.7% | -2.1% | -18% | 7.4% | 111% | 90.1% | 79.5% | 112% | 88.7%
17 | O=C(O)c1ccccc1 | -31.5% | -54% | -5.6% | -11.5% | 2.8% | 88.1% | 114% | 105% | 82.6% | 118%
18 | CCS(=O)(=O)CCn1c([N+](=O)[O-])cnc1C | -9.7% | -35.7% | 1.2% | 1.6% | 2.2% | 115% | 125% | 112% | 95.6% | 120%
19 | CC(=O)Oc1ccc2c(c1OC(C)=O)OCC1(O)Cc3c(cc(OC(C)=O)c(OC(C)=O)c3OC(C)=O)C21 (stereo not given) | 12% | 14% | 6.1% | 60.6% | 42.6% | 124% | 88.9% | 85.7% | 126% | 110%
20 | NC(=O)c1ccc([N+](=O)[O-])cc1Cl | -31.5% | -50% | 14.3% | 31.8% | -9% | 130% | 106% | 130% | 123% | 108%

Quoted at random: 3 records from the list, in no set order.
Row | Compound | loss of total cells (Human fetal astrocytes [1]; 1.39 µM) | loss of total cells (Human fetal astrocytes [1]; 2.78 µM) | loss of total cells (Human fetal astrocytes [1]; 5.56 µM) | loss of total cells (Human fetal astrocytes [1]; 11.11 µM) | loss of total cells (Human fetal astrocytes [1]; 22.22 µM) | synaptosome phagocytosis (Human fetal astrocytes [2]; 1.39 µM) | synaptosome phagocytosis (Human fetal astrocytes [2]; 2.78 µM) | synaptosome phagocytosis (Human fetal astrocytes [2]; 5.56 µM) | synaptosome phagocytosis (Human fetal astrocytes [2]; 11.11 µM) | synaptosome phagocytosis (Human fetal astrocytes [2]; 22.22 µM)
12 | CCCCCCCCCCCCCCCCC(C(=O)O)C(O)(CC(=O)O)C(=O)O (stereo not given) | -11.5% | 7.6% | 1.5% | 10.8% | 21.5% | 83.3% | 94.4% | 75.7% | 84.9% | 113%
17 | O=C(O)c1ccccc1 | -31.5% | -54% | -5.6% | -11.5% | 2.8% | 88.1% | 114% | 105% | 82.6% | 118%
10 | COc1cccc(-c2cc(=O)c3cc(OC)ccc3o2)c1 | -12.3% | 4% | 8.8% | 14.2% | 4.4% | 95.5% | 113% | 123% | 103% | 109%

Following part:

Row | Compound | loss of total cells (Human fetal astrocytes [1]; 1.39 µM) | loss of total cells (Human fetal astrocytes [1]; 2.78 µM) | loss of total cells (Human fetal astrocytes [1]; 5.56 µM) | loss of total cells (Human fetal astrocytes [1]; 11.11 µM) | loss of total cells (Human fetal astrocytes [1]; 22.22 µM) | synaptosome phagocytosis (Human fetal astrocytes [2]; 1.39 µM) | synaptosome phagocytosis (Human fetal astrocytes [2]; 2.78 µM) | synaptosome phagocytosis (Human fetal astrocytes [2]; 5.56 µM) | synaptosome phagocytosis (Human fetal astrocytes [2]; 11.11 µM) | synaptosome phagocytosis (Human fetal astrocytes [2]; 22.22 µM)
21 | Cn1ccnc1S | -5% | -14.9% | -3.9% | -10.2% | 0.6% | 97.6% | 94% | 120% | 123% | 118%
22 | CO[C@@]1(NC(=O)CSCC#N)C(=O)N2C(C(=O)O)=C(CSc3nnnn3C)CS[C@@H]21 | -14.9% | -11.3% | -2.1% | 6.3% | 17% | 114% | 97% | 110% | 119% | 99%
23 | CC(C(=O)O)c1ccc2c(c1)[nH]c1ccc(Cl)cc12 (stereo not given) | -4.1% | -5.8% | 5.1% | 5.5% | 16.4% | 75.3% | 110% | 114% | 117% | 134%
24 | C[N+](C)(C)C[C@H](O)CC(=O)[O-] | 33.9% | -27% | 8.1% | 35.1% | 5.3% | 171% | 106% | 101% | 115% | 101%
25 | COc1cc(NC(C)CCCN)c2ncccc2c1 (stereo not given) | -11.6% | -8.5% | -6.3% | 2.6% | 61.1% | 79.4% | 66.9% | 39.4% | 32.7% | 14.4%
26 | CC(=O)Nc1ccc(S(=O)(=O)c2ccc(NC(C)=O)cc2)cc1 | -21.6% | 0.3% | 8.1% | -15.6% | 6.8% | 95.6% | 92.1% | 104% | 107% | 103%
27 | CCCc1cc(=O)[nH]c(=S)[nH]1 | -12.8% | -18% | -28.6% | -14.7% | 14.9% | 109% | 104% | 103% | 88.8% | 119%
28 | COc1ccc2c(c1)OC1(O)COc3cc(OC)c(OC)cc3C1=C2 (stereo not given) | -0.4% | 4% | -6.1% | 1.3% | -13% | 115% | 114% | 96.7% | 95.3% | 134%
29 | CCCCN1CCCCC1C(=O)Nc1c(C)cccc1C (stereo not given) | -45.2% | -15.9% | 4.3% | -6.2% | -7.2% | 24.2% | 97.4% | 85.4% | 77.6% | 62.3%
30 | CCCCC1C(=O)N(c2ccccc2)N(c2ccc(O)cc2)C1=O (stereo not given) | 10% | 2.7% | 29.7% | 80.5% | 67.4% | 95.4% | 93.4% | 56.6% | 20.1% | 11.1%
31 | O=C(O)C(S)C(S)C(=O)O (stereo not given) | -19.7% | 3.2% | 16.1% | 18.9% | 15.6% | 99.8% | 87.4% | 105% | 104% | 90.6%
32 | NNC(=O)c1ccncc1 | 6.8% | -33.6% | -9.8% | 2.6% | -20.4% | 110% | 127% | 112% | 92.6% | 98.9%
33 | Cc1cc(OC(=O)c2c(C)cc(O)cc2O)cc(O)c1C(=O)O | -26.4% | -0.7% | 33.6% | 4.5% | -17.4% | 98.8% | 120% | 131% | 117% | 125%
34 | COc1ccc(-c2coc3cc(O)ccc3c2=O)c(O)c1O | -7.6% | -8.6% | 24.4% | 35.5% | 17.4% | 110% | 101% | 98% | 122% | 75.5%
35 | Cc1onc(-c2ccccc2)c1C(=O)N[C@@H]1C(=O)N2[C@@H]1SC(C)(C)[C@@H]2C(=O)O | -9.1% | -7% | 10.5% | -12.5% | 8.5% | 109% | 101% | 104% | 97.6% | 95.7%
36 | O=c1cc(-c2ccccc2O)oc2cc(O)ccc12 | -18.9% | -1.8% | -6.6% | -3.4% | 4.4% | 107% | 94% | 97.5% | 102% | 112%
37 | Cn1c(=O)c2nc[nH]c2n(C)c1=O | -29% | -1.5% | -5.7% | -25% | -0.6% | 90% | 101% | 106% | 109% | 104%
38 | CC(CN(C)C)CN1c2ccccc2Sc2ccccc21 (stereo not given) | -19.3% | -22% | -20.9% | 4.3% | 44.1% | 91.9% | 76.9% | 67.5% | 44.1% | 55.5%
39 | O=C(O)c1ccccc1Nc1cccc(C(F)(F)F)c1 | -5.8% | -7% | 3.3% | -3.9% | 2.3% | 109% | 109% | 101% | 90.5% | 65.4%
